Laboratory results taken from publication PMC10123100, “Single-molecule visualization of stalled replication-fork rescue by the Escherichia coli Rep helicase” (Nucleic Acids Research, 2023).
Weaker means in comparison with the reference protein, sequence or condition of that experiment. Tags and fusion partners may be left off the protein sequences shown. For at least one entry, the source does not settle the construct or the ends of the probe.

What was measured:
[1] = molecular target: T1, Rep WT (Escherichia coli) (UniProt P09980); test: SPR; settings: 3'-biotin, SPR: 25 mM Tris-HCl pH 7.6, 50 mM NaCl, 5 mM MgCl2, 0.25 mM DTT, 0.2 mM EDTA, 0.005% P20, 20 C, recombinant protein, residues 1-673, single-stranded DNA
T1 sequence (looked up): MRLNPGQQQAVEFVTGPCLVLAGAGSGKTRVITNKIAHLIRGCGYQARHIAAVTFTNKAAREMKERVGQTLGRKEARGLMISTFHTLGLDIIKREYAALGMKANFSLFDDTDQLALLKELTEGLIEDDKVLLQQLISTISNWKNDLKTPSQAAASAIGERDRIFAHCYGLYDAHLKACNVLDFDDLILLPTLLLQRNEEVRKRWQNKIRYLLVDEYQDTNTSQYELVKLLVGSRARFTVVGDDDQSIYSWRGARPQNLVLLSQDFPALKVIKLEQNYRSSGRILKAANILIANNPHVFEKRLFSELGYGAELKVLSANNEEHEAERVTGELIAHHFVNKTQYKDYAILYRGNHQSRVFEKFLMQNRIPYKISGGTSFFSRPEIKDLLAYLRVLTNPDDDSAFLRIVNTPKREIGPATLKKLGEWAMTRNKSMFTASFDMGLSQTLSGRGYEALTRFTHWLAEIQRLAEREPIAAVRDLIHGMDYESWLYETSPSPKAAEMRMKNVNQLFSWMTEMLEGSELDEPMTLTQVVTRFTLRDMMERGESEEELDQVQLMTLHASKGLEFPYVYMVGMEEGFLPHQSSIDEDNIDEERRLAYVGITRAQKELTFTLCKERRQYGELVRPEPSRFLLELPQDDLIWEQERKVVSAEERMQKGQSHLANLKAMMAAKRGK

[2] = molecular target: T2, Rep ΔC33 (Escherichia coli) (UniProt P09980); test: SPR; settings: 200 uM ATP stimulates dissociation; 3'-biotin; SPR: 25 mM Tris-HCl pH 7.6, 50 mM NaCl, 5 mM MgCl2, 0.25 mM DTT, 0.2 mM EDTA, 0.005% P20, 20 C; recombinant protein; protein details: His6; single-stranded DNA
T2 sequence (looked up, limits assumed): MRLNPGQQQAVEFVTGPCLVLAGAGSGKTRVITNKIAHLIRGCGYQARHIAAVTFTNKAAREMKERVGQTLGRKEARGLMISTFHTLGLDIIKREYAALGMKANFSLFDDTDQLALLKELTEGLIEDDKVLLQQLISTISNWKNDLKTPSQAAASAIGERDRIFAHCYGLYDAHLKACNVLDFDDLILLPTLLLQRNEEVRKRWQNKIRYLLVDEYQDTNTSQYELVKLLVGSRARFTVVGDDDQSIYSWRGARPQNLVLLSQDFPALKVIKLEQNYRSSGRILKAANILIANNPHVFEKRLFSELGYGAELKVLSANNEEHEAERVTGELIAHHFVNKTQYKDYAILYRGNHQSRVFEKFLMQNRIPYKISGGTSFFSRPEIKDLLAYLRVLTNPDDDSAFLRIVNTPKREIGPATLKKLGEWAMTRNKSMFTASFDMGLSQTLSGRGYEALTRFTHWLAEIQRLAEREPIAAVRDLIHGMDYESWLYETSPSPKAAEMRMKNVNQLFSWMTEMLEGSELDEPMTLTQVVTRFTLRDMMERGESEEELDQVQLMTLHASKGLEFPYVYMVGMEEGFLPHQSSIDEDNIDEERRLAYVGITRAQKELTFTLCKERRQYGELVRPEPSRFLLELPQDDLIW

## TTTTTTTTTT [3'-bio-dT10]
[1]; 20 nM Rep, no nucleotide, faster dissociation than dT35
  binding result: binds more weakly

## TTTTTTTTTTTTTTTTTTTTTTTTTTTTTTTTTTT [3'-bio-dT35]
[1]; 200 uM ATP stimulates dissociation
  binding result: binds more weakly
[2]
  binding result: binds more weakly
